Experimental data as given in PubChem BioAssay AID256 (DTP/NCI, 2004).
The list is a part of this screen's results and no random one: it is rich in T/C values a quarter to a half above the control, in often repeated tests (any T/C) and in doses without a T/C. Other doses and runs of a compound stand elsewhere. T/C: endpoint of the treated group in % of that of the vehicle group. Some doses have a count of surviving animals in place of a T/C: the source files T/C as zero there, which appears to mark a toxic dose or a test without result, not a measured value. Some survivor counts are full or nearly so, which does not show that the dose was tolerated: survival well below the control is almost never listed, so the zero probably covers shortened survival too. Survivors were counted at the toxicity check, usually on the fifth day, unless a day is given; later deaths do not show. Schedule codes are those of the source, taken here to give the interval after Q, in days (D) or hours (H), and the number of doses after X. Some doses were run more than once; the results are listed from low to high. Where survival is the endpoint, this PubChem deposit counts one and a half times the control or more as active, and values a quarter to a half above the control carry no call in these data; other NCI protocols may use other cut-offs.

Test system: CD2F1 mice, L1210 leukemia ip, survival T/C
Assay: NCI In Vivo Anticancer Drug Screen. Data for tumor model L1210 Leukemia (intraperitoneal) in CD2F1 (CDF1) mice
Conditions: higher T/C = longer survival
How it was run: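 Tumor-bearing mice (transplanted tumor) were split into treated and vehicle control groups, and the measured endpoint of each treated group was divided by that of its vehicle controls.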

[1] = T/C endpoint: mean survival time, dose: 100.0 mg/kg/injection, schedule: Q01DX009 (ip), vehicle: saline with Tween-80
[2] = T/C endpoint: mean survival time, dose: 200.0 mg/kg/injection, schedule: Q01DX009 (ip), vehicle: saline with Tween-80
[3] = T/C endpoint: mean survival time, dose: 50.0 mg/kg/injection, schedule: Q01DX009 (ip), vehicle: saline with Tween-80
[4] = T/C endpoint: mean survival time, dose: 400.0 mg/kg/injection, schedule: Q01DX009 (ip), vehicle: saline with Tween-80
[5] = T/C endpoint: mean survival time, dose: 100.0 mg/kg/injection, schedule: Q04DX003 (ip), vehicle: saline with Tween-80
[6] = T/C endpoint: mean survival time, dose: 200.0 mg/kg/injection, schedule: Q04DX003 (ip), vehicle: saline with Tween-80
[7] = T/C endpoint: mean survival time, dose: 400.0 mg/kg/injection, schedule: Q04DX003 (ip), vehicle: saline with Tween-80

## COC1CCC(/C=C(\C#N)C2CCC([N+](=O)[O-])CC2)CC1 (stereo not given)
[1]
  survivor count: 3 of 3 and 6 of 6
[2]
  survivor count: 3 of 3

## O[C@H](CN1CC1)[C@@H](O)CN1CC1
T/C endpoint: mean survival time, dose: 0.13 mg/kg/injection, schedule: Q01DX009 (ip), vehicle: saline
  T/C: 147 and 148 % of control
T/C endpoint: mean survival time, dose: 0.25 mg/kg/injection, schedule: Q03DX003 (ip), vehicle: saline
  T/C: 149 % of control
T/C endpoint: mean survival time, dose: 0.25 mg/kg/injection, schedule: Q04DX003 (ip), vehicle: saline
  T/C: 143 % of control
T/C endpoint: mean survival time, dose: 1.0 mg/kg/injection, schedule: Q01DX009 (ip), vehicle: saline
  T/C: 130 % of control

## CN=S(=O)(OCCCCCOS(=O)(=NC)c1ccc(C)cc1)c1ccc(C)cc1 (stereo not given)
T/C endpoint: mean survival time, dose: 12.5 mg/kg/injection, schedule: Q01DX009 (ip), vehicle: saline with Tween-80
  survivor count: 4 of 6
T/C endpoint: mean survival time, dose: 25.0 mg/kg/injection, schedule: Q01DX009 (ip), vehicle: saline with Tween-80
  survivor count: 5 of 6
[3]
  survivor count: 2 of 6
[1]
  survivor count: 1 of 6
[2]
  survivor count: 0 of 6
[4]
  survivor count: 0 of 6

## N=c1c2ncn(Cc3cccc(C(F)(F)F)c3)c2ncn1O
T/C endpoint: mean survival time, dose: 100.0 mg/kg/injection, schedule: Q04DX003 (ip), vehicle: acetone
  survivor count: 6 of 6
T/C endpoint: mean survival time, dose: 200.0 mg/kg/injection, schedule: Q04DX003 (ip), vehicle: acetone
  survivor count: 0 of 6
T/C endpoint: mean survival time, dose: 400.0 mg/kg/injection, schedule: Q04DX003 (ip), vehicle: acetone
  survivor count: 1 of 6

## COc1ccc(C2=CC(c3ccccc3)C(c3ccccc3)C(=O)N2)cc1 (stereo not given)
T/C endpoint: mean survival time, dose: 50.0 mg/kg/injection, schedule: Q04DX002 (ip), vehicle: saline with Tween-80
  survivor count: 3 of 3
T/C endpoint: mean survival time, dose: 100.0 mg/kg/injection, schedule: Q04DX002 (ip), vehicle: saline with Tween-80
  survivor count: 3 of 3

## N#Cc1cccnc1Cl
T/C endpoint: median survival time, dose: 400.0 mg/kg/injection, schedule: Q04DX002 (ip), vehicle: saline with Tween-80
  survivor count: 1 of 3

## O=C(O)CCN1CCCc2ccccc21
T/C endpoint: mean survival time, dose: 400.0 mg/kg/injection, schedule: Q01DX009 (ip), vehicle: other
  survivor count: 0 of 6

## CCCCCCCCCCCCCCCCNC(=O)C[N+](C)(C)Cc1ccccc1
T/C endpoint: mean survival time, dose: 20.0 mg/kg/injection, schedule: Q04DX003 (ip), vehicle: saline with Tween-80
  survivor count: 5 of 6
[5]
  survivor count: 0 of 6
[6]
  survivor count: 0 of 6
[7]
  survivor count: 0 of 6

## [CH3][Pb]([CH3])([CH3])[NH]C#N
T/C endpoint: mean survival time, dose: 10.0 mg/kg/injection, schedule: Q01DX009 (ip), vehicle: saline
  survivor count: 5 of 6

## O=[N+]([O-])c1ccc2c(c1)C(=Nc1ccc3ccccc3c1)c1ccccc1-2
[7]
  survivor count: 5 of 6

## [O-]/[N+](=C\c1ccccc1)c1ccccc1
[7]
  survivor count: 3 of 6

## COCn1cnc2c(F)ncnc21
[5]
  survivor count: 3 of 6
[6]
  survivor count: 0 of 6
[7]
  survivor count: 0 of 6

## CN(C)C(=O)c1ccc[n+](CC(=O)NCc2ccccc2)c1
T/C endpoint: mean survival time, dose: 400.0 mg/kg/injection, schedule: Q04DX003 (ip), vehicle: saline
  survivor count: 3 of 6

## O=S(=O)(F)c1ccccc1
[6]
  survivor count: 1 of 6
[7]
  survivor count: 0 of 6

## Cc1cc2c(=O)[nH]cnc2[nH]1
T/C endpoint: median survival time, dose: 200.0 mg/kg/injection, schedule: Q01DX005 (ip), vehicle: saline
  survivor count: 1 of 6

## C=C(CC(=O)OC)C(=O)O
T/C endpoint: mean survival time, dose: 100.0 mg/kg/injection, schedule: Q01DX009 (ip), vehicle: saline sonified
  survivor count: 3 of 6
T/C endpoint: mean survival time, dose: 200.0 mg/kg/injection, schedule: Q01DX009 (ip), vehicle: saline sonified
  survivor count: 2 of 6
T/C endpoint: mean survival time, dose: 400.0 mg/kg/injection, schedule: Q01DX009 (ip), vehicle: saline sonified
  survivor count: 0 of 6

## O=C(O)CNC(=O)C(CSC(c1ccccc1)(c1ccccc1)c1ccccc1)NC(c1ccccc1)(c1ccccc1)c1ccccc1 (stereo not given)
T/C endpoint: mean survival time, dose: 150.0 mg/kg/injection, schedule: Q01DX001 (ip), vehicle: saline
  survivor count: 3 of 6
T/C endpoint: mean survival time, dose: 300.0 mg/kg/injection, schedule: Q01DX001 (ip), vehicle: saline
  survivor count: 0 of 6

## O=C1C(Cl)=C(NCC2CCC(CO)CC2)C(=O)c2ccccc21 (stereo not given)
T/C endpoint: mean survival time, dose: 50.0 mg/kg/injection, schedule: Q04DX003 (ip), vehicle: saline with Tween-80
  survivor count: 0 of 6
[5]
  survivor count: 0 of 6

## CCCCNCCC(SSSC(CCNCCCC)c1ccc(Cl)cc1)c1ccc(Cl)cc1 (stereo not given)
[5]
  survivor count: 1 of 6
[6]
  survivor count: 1 of 6
[7]
  survivor count: 0 of 6

## CCOC(=O)C1=C(Nc2ccc(OC)cc2)C(N)=NC1=N
T/C endpoint: median survival time, dose: 100.0 mg/kg/injection, schedule: Q01DX005 (ip), vehicle: saline
  T/C: 128 % of control
T/C endpoint: median survival time, dose: 100.0 mg/kg/injection, schedule: Q01DX005 (ip), vehicle: suspension in saline
  T/C: 128 % of control
T/C endpoint: median survival time, dose: 200.0 mg/kg/injection, schedule: Q01DX005 (ip), vehicle: suspension in saline
  survivor count: 3 of 6
T/C endpoint: median survival time, dose: 277.7 mg/kg/injection, schedule: Q01DX005 (ip), vehicle: saline
  survivor count: 5 of 6
T/C endpoint: median survival time, dose: 277.78 mg/kg/injection, schedule: Q01DX005 (ip), vehicle: saline
  T/C: 134 % of control

## C#CC1(NC(=O)NC(C)(C)C)CCCCC1
[4]
  survivor count: 2 of 3

## COc1ccc(CNCCCCCCNCc2ccc(OC)cc2)cc1
[2]
  survivor count: 2 of 6
[7]
  survivor count: 0 of 6

## Cc1cccc(-n2c(N)cc(=O)[nH]c2=S)n1
[6]
  survivor count: 0 of 6
[7]
  survivor count: 0 of 6

## COc1cc(N)ccc1NC(=O)c1ccccc1
[3]
  survivor count: 3 of 6

## c1ccc(C2CC2NC2=NCCO2)cc1 (stereo not given)
[5]
  survivor count: 4 of 6
[6]
  survivor count: 0 of 6
[7]
  survivor count: 0 of 6

## CN(C)N=Nc1cccc(NC(N)=O)c1
T/C endpoint: mean survival time, dose: 39.5 mg/kg/injection, schedule: Q01DX009 (ip), vehicle: Klucel (hydroxypropylcellulose) (HPC)
  T/C: 132 % of control
T/C endpoint: mean survival time, dose: 118.0 mg/kg/injection, schedule: Q01DX009 (ip), vehicle: Klucel (hydroxypropylcellulose) (HPC)
  survivor count: 5 of 6
T/C endpoint: mean survival time, dose: 177.0 mg/kg/injection, schedule: Q01DX009 (ip), vehicle: Klucel (hydroxypropylcellulose) (HPC)
  survivor count: 1 of 6
T/C endpoint: mean survival time, dose: 266.0 mg/kg/injection, schedule: Q01DX009 (ip), vehicle: Klucel (hydroxypropylcellulose) (HPC)
  survivor count: 0 of 6
T/C endpoint: mean survival time, dose: 400.0 mg/kg/injection, schedule: Q01DX009 (ip), vehicle: Klucel (hydroxypropylcellulose) (HPC)
  survivor count: 0 of 6

## c1ccc(NCc2nc3ccccc3[nH]2)cc1
T/C endpoint: mean survival time, dose: 50.0 mg/kg/injection, schedule: Q01DX005 (ip), vehicle: water
  survivor count: 3 of 6
T/C endpoint: mean survival time, dose: 100.0 mg/kg/injection, schedule: Q01DX005 (ip), vehicle: water
  survivor count: 0 of 6
T/C endpoint: mean survival time, dose: 200.0 mg/kg/injection, schedule: Q01DX005 (ip), vehicle: water
  survivor count: 0 of 6

## Cc1ccc(NC(=O)N(CCCl)N=O)cc1C
T/C endpoint: mean survival time, dose: 2.5 mg/kg/injection, schedule: Q01DX001 (ip), vehicle: other
  T/C: 128 % of control
T/C endpoint: mean survival time, dose: 3.8 mg/kg/injection, schedule: Q01DX001 (ip), vehicle: other
  T/C: 130 % of control
T/C endpoint: mean survival time, dose: 44.0 mg/kg/injection, schedule: Q01DX001 (ip), vehicle: other
  survivor count: 5 of 6
T/C endpoint: mean survival time, dose: 66.0 mg/kg/injection, schedule: Q01DX001 (ip), vehicle: other
  survivor count: 3 of 6
T/C endpoint: mean survival time, dose: 100.0 mg/kg/injection, schedule: Q01DX001 (ip), vehicle: other
  survivor count: 0 of 6
